Assay results published in patent US8901156B2, “Compounds and methods” (Tempero Pharmaceuticals, Inc., priority 2010, dated 2014).
Where a name gives a salt, the structure may show the parent alone. Some results were stated once for a whole list of compounds, not compound by compound.

Amino acid sequences for entries named in this document (tags omitted). Residues count along the entry.
UniProt Q9UKV0, 1-1066 isoform Q9UKV0-5: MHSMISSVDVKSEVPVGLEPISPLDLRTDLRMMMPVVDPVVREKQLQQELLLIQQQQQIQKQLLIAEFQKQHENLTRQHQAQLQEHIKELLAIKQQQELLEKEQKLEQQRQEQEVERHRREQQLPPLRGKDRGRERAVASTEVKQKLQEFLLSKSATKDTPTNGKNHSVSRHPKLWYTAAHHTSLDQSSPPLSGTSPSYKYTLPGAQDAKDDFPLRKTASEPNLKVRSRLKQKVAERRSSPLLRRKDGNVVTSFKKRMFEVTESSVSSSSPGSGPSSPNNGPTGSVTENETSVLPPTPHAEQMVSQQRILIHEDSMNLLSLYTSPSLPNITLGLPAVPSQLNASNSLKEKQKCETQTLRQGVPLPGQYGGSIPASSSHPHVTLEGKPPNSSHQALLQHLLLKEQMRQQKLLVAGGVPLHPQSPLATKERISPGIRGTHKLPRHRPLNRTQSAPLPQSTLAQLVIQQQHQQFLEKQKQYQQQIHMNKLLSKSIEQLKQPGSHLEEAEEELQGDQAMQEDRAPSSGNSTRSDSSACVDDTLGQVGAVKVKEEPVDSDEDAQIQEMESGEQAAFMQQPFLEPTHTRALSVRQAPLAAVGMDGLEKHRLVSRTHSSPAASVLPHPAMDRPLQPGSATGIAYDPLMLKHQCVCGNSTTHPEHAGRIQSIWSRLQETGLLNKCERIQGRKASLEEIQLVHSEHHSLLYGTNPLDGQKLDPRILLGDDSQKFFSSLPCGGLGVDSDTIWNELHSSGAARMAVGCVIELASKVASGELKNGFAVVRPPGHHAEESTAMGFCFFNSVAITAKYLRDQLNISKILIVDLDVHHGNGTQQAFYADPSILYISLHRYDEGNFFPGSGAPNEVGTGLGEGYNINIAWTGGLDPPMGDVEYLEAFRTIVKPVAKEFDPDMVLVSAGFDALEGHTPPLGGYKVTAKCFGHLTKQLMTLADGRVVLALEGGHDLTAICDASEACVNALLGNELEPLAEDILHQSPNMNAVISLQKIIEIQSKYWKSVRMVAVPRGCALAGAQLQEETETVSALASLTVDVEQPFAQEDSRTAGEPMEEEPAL

Target: T1, Recombinant HDAC9 isoform 4 (Homo sapiens, UniProt Q9UKV0)
T1 construct: purchased BPS Bioscience
Test: Histone Deacetylase 9 (HDAC9) inhibition assay, fluorogenic substrate
Assay type: biochemical
Conditions: mean of a minimum of 2 experiments; 11 point 3x dilution series from 100 uM; substrate 4.5 uM

## CC(C)(CNC(=O)c1cccc(-c2noc(C(F)(F)F)n2)c1)c1cccc(-c2ccccc2)c1 [Example 122, N-(2-([1,1′-Biphenyl]-3-yl)-2-methylpropyl)-3-(5-(trifluoromethyl)-1,2,4-oxadiazol-3-yl)benzamide]
  mean pIC50, inhibition of HDAC9: greater than 4.8

## CC(C)(CNC(=O)c1cccc(-c2noc(C(F)(F)F)n2)c1)c1csc(-c2ccc(F)cc2)n1 [Example 44, N-(2-(2-(4-Fluorophenyl)thiazol-4-yl)-2-methylpropyl)-3-(5-(trifluoromethyl)-1,2,4-oxadiazol-3-yl)benzamide]
  mean pIC50, inhibition of HDAC9: greater than 4.8

## O=C(NCCc1coc(-c2ccccc2)n1)c1cccc(-c2noc(C(F)(F)F)n2)c1 [Example 126, N-(2-(2-Phenyloxazol-4-yl)ethyl)-3-(5-(trifluoromethyl)-1,2,4-oxadiazol-3-yl)benzamide]
  mean pIC50, inhibition of HDAC9: greater than 4.8

## O=C(NCc1nc(-c2ccccc2)cs1)c1cccc(-c2noc(C(F)(F)F)n2)c1 [Example 52, N-((4-Phenylthiazol-2-yl)methyl)-3-(5-(trifluoromethyl)-1,2,4-oxadiazol-3-yl)benzamide]
  mean pIC50, inhibition of HDAC9: greater than 4.8

## CC(C)(CNCc1cccc(-c2noc(C(F)(F)F)n2)c1)c1coc(-c2ccc(Cl)cc2)n1 [Example 104, 2-(2-(4-Chlorophenyl)oxazol-4-yl)-2-methyl-N-(3-(5-(trifluoromethyl)-1,2,4-oxadiazol-3-yl)benzyl)propan-1-amine hydrochloride]
  mean pIC50, inhibition of HDAC9: greater than 4.8

## O=C(NCCc1nc(-c2ccc(Cl)cc2)cs1)c1cccc(-c2noc(C(F)(F)F)n2)c1 [Example 54, N-(2-(4-(4-Chlorophenyl)thiazol-2-yl)ethyl)-3-(5-(trifluoromethyl)-1,2,4-oxadiazol-3-yl)benzamide]
  mean pIC50, inhibition of HDAC9: greater than 4.8

## CC(C)(CNC(=O)c1cccc(-c2noc(C(F)(F)F)n2)c1)c1ncc(-c2ccccc2)o1 [Example 84, N-(2-Methyl-2-(5-phenyloxazol-2-yl)propyl)-3-(5-(trifluoromethyl)-1,2,4-oxadiazol-3-yl)benzamide]
  mean pIC50, inhibition of HDAC9: greater than 4.8

## CC(O)(CNC(=O)c1cccc(-c2noc(C(F)(F)F)n2)c1)c1coc(-c2ccc(F)cc2)n1 (stereo not shown) [Example 138, N-(2-(2-(4-Fluorophenyl)oxazol-4-yl)-2-hydroxypropyl)-3-(5-(trifluoromethyl)-1,2,4-oxadiazol-3-yl)benzamide]
  mean pIC50, inhibition of HDAC9: greater than 4.8

## O=C(NCC1(c2nc(-c3ccccc3)cs2)CCOCC1)c1ccc(-c2noc(C(F)(F)F)n2)s1 [Example 22, N-((4-(4-Phenyithiazol-2-yl)tetrahydro-2H-pyran-4-yl)methyl)-5-(5-(trifluoromethyl)-1,2,4-oxadiazol-3-yl)thiophene-2-carboxamide]
  mean pIC50, inhibition of HDAC9: greater than 4.8

## CN(CC1(c2nc(-c3ccccc3)cs2)CCOCC1)C(=O)c1cccc(-c2noc(C(F)(F)F)n2)c1 [Example 57, N-Methyl-N-((4-(4-phenylthiazol-2-yl)tetrahydro-2H-pyran-4-yl)methyl)-3-(5-(trifluoromethyl)-1,2,4-oxadiazol-3-yl)benzamide]
  mean pIC50, inhibition of HDAC9: greater than 4.8

## O=C(NCC1(c2nc(-c3ccccc3)cs2)CCCC1)c1cccc(-c2noc(C(F)(F)F)n2)c1 [Example 10, N-((1-(4-Phenylthiazol-2-yl)cyclopentyl)methyl)-3-(5-(trifluoromethyl)-1,2,4-oxadiazol-3-yl)benzamide]
  mean pIC50, inhibition of HDAC9: greater than 4.8

## COc1ccc(-c2nc(CCNC(=O)c3cncc(-c4noc(C(F)(F)F)n4)c3)co2)cc1 [Example 107, N-(2-(2-(4-Methoxyphenyl)oxazol-4-yl)ethyl)-5-(5-(trifluoromethyl)-1,2,4-oxadiazol-3-yl)nicotinamide]
  mean pIC50, inhibition of HDAC9: greater than 4.8

## CC(C)(CNC(=O)c1cccc(-c2ccc(C(=O)C(F)(F)F)s2)c1)c1coc(-c2ccc(F)cc2)n1 [Example 88, N-(2-(2-(4-Fluorophenyl)oxazol-4-yl)-2-methylpropyl)-3-(5-(2,2,2-trifluoroacetyl)thiophen-2-yl)benzamide]
  mean pIC50, inhibition of HDAC9: greater than 4.8

## O=C(NCC1(c2nc(-c3ccc(C(F)(F)F)cc3)cs2)CCOCC1)c1cccc(-c2noc(C(F)(F)F)n2)c1 [Example 35, 3-(5-(Trifluoromethyl)-1,2,4-oxadiazol-3-yl)-N-((4-(4-(4-(trifluoromethyl)phenyl)thiazol-2-yl)tetrahydro-2H-pyran-4-yl)methyl)benzamide]
  mean pIC50, inhibition of HDAC9: greater than 4.8

## O=C(NCCc1nc(-c2ccc(Cl)cc2)cs1)c1cncc(-c2noc(C(F)(F)F)n2)c1 [Example 55, N-(2-(4-(4-Chlorophenyl)thiazol-2-yl)ethyl)-5-(5-(trifluoromethyl)-1,2,4-oxadiazol-3-yl)nicotinamide]
  mean pIC50, inhibition of HDAC9: greater than 4.8

## CN1CCC(CNC(=O)c2cccc(-c3noc(C(F)(F)F)n3)c2)(c2coc(-c3ccc(F)cc3)n2)CC1 [Example 80, N-((4-(2-(4-Fluorophenyl)oxazol-4-yl)-1-methylpiperidin-4-yl)methyl)-3-(5-(trifluoromethyl)-1,2,4-oxadiazol-3-yl)benzamide]
  mean pIC50, inhibition of HDAC9: greater than 4.8

## N#Cc1cc(C(=O)NCC2(c3nc(-c4ccccc4)cs3)CCOCC2)cc(-c2noc(C(F)(F)F)n2)c1 [Example 27, 3-Cyano-N-((4-(4-phenylthiazol-2-yl)tetrahydro-2H-pyran-4-yl)methyl)-5-(5-(trifluoromethyl)-1,2,4-oxadiazol-3-yl)benzamide]
  mean pIC50, inhibition of HDAC9: greater than 4.8

## O=C(NCCc1coc(-c2ccc(Cl)cc2)n1)c1cncc(-c2noc(C(F)(F)F)n2)c1 [Example 129, N-(2-(2-(4-Chlorophenyl)oxazol-4-yl)ethyl)-5-(5-(trifluoromethyl)-1,2,4-oxadiazol-3-yl)nicotinamide]
  mean pIC50, inhibition of HDAC9: greater than 4.8

## CC(CNC(=O)c1cncc(-c2noc(C(F)(F)F)n2)c1)c1coc(-c2ccc(F)cc2)n1 (stereo not shown) [Example 134, N-(2-(2-(4-Fluorophenyl)oxazol-4-yl)propyl)-5-(5-(trifluoromethyl)-1,2,4-oxadiazol-3-yl)nicotinamide]
  mean pIC50, inhibition of HDAC9: greater than 4.8

## CC(C)(CNC(=O)c1cccc(-c2noc(C(F)(F)F)n2)c1)c1cc(-c2ccccc2)n[nH]1 [Example 133, N-(2-Methyl-2-(3-phenyl-1H-pyrazol-5-yl)propyl)-3-(5-(trifluoromethyl)-1,2,4-oxadiazol-3-yl)benzamide]
  mean pIC50, inhibition of HDAC9: greater than 4.8

## O=C(NCC1(c2nc(-c3ccncc3)cs2)CCOCC1)c1cccc(-c2noc(C(F)(F)F)n2)c1 [Example 21, N-((4-(4-(Pyridin-4-yl)thiazol-2-yl)tetrahydro-2H-pyran-4-yl)methyl)-3-(5-(trifluoromethyl)-1,2,4-oxadiazol-3-yl)benzamide]
  mean pIC50, inhibition of HDAC9: greater than 4.8

## O=C(NCCc1csc(-c2ccc(F)cc2)n1)c1cncc(-c2noc(C(F)(F)F)n2)c1 [Example 58, N-(2-(2-(4-Fluorophenyl)thiazol-4-yl)ethyl)-5-(5-(trifluoromethyl)-1,2,4-oxadiazol-3-yl)nicotinamide]
  mean pIC50, inhibition of HDAC9: greater than 4.8
